Values of other authors as cited in US11197863B2, “Inhibitors of polo-like kinase 4 (PLK4) for treating pediatric embryonal tumors” (ANN AND ROBERT H. LURIE CHILDREN'S HOSPITAL OF CHICAGO, priority 2017, dated 2021).
At least one compound was matched to its structure with a doubt left.

System: irradiated AT/RT xenografts
Conditions: cited from earlier work

CC(=O)c1c(C)c2cnc(Nc3ccc(N4CCNCC4)cn3)nc2n(C2CCCC2)c1=O [Palbociclib]
xenograft regrowth: delayed the regrowth
